# Experimental data from PubChem BioAssay AID651640 (Broad Institute, 2012).
# Screen size: about 350,000 compounds; about 6,000 (1.7%) were called active. The shares of active, inactive and inconclusive entries below differ from those in the screen. No stated cut-off is given here; in the data, active means CPE inhibition above about 20% (passing the limit was not always enough); inconclusive means no clear call, values can overlap the other calls; tested in BHK-21 cells.
# Assay: protection of cells from dengue 2 killing – plate reader, single concentration, primary screen (AID 651640);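 further: 0% = median of neutral control wells and 100% = median of positive control wells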
# Settings: DENV2-infected cells, cytopathic effect rescue, at 9.99 µM, stronger effect = higher value
row,SMILES,CPE inhibition
1,CCCc1nc2ccccc2n1C(=S)SC,inconclusive: 24.6%
2,C[C@H]1CN([C@@H](C)CO)C(=O)Cc2cc(NS(=O)(=O)c3cccs3)ccc2O[C@H]1CN(C)C,inactive: -1.89%
3,O=C(CCN1CCCCC1)NCC[C@H]1CC[C@H](NS(=O)(=O)c2cccc(F)c2)[C@@H](CO)O1,inconclusive: 38.7%
4,Cc1cc(C)c2c(n1)sc1c(N3CCCCC3)ncnc12,inconclusive: 20.5%
5,CCCn1nc2cc(C(=O)NCCCCc3ccccc3)ccc2c1OCC,inconclusive: 47.5%
6,COCCCNC(=O)C[C@H]1C[C@@]2(C(=O)OC)C(=C[C@H](C3CCCC3)O[C@@H]2C)N(Cc2ccccc2)C1=O,inconclusive: 33.3%
7,O=C1CC(=Nc2ccc([N+](=O)[O-])cc2)NN1c1c(Cl)cc(Cl)cc1Cl,inactive: -10.9%
8,C[C@H]1CCCCO[C@@H](CN(C)S(=O)(=O)c2ccc(F)cc2)[C@@H](C)CN([C@@H](C)CO)C(=O)c2cc(NS(=O)(=O)c3ccc(F)cc3)ccc2O1,inactive: 2.41%
9,CCC(=O)c1ccc(OCC(=O)OC(C)C(=O)Nc2c(C)n(C)n(-c3ccccc3)c2=O)cc1 (stereo not given),inconclusive: 30.2%
10,C[C@H](CO)N1C[C@H](C)[C@@H](CN(C)C(=O)CN(C)C)Oc2ncc(-c3ccc(C(=O)N(C)C)cc3)cc2C1=O,inactive: 10.6%
11,CC(c1ccccc1)N1CC(C(=O)N2CCN(c3ccccc3)CC2)CC1=O (stereo not given),inactive: -1.14%
12,CCC(CC)CN1C(N(C)C)=NC[C@@H]1CC(C)C,inconclusive: 40.1%
13,CCC(=O)c1cn([C@@H](CCC(OC)OC)CC(=O)OC(C)(C)C)cc1CC,inconclusive: 43.7%
14,CCC(=O)Nc1ccc2c(c1)C(=O)N(C)[C@H]1CC[C@@H](CC(=O)N[C@@H](C)c3ccccc3)O[C@H]1CO2,active: 70.6%
15,Cc1noc(C)c1NC(=O)N(C)C[C@H]1Oc2ccc(NC(=O)NC3CCCCC3)cc2CC(=O)N([C@@H](C)CO)C[C@H]1C,inactive: -5.44%
16,COC(=O)c1c(NC(=O)COC(=O)CCc2ccc(S(=O)(=O)N3CCOCC3)cc2)sc2c1CCC2,inconclusive: 61.8%
17,Cc1ccc(N/C(=C\C(=O)c2ccccc2)C(=O)O)cc1,inconclusive: 43.4%
18,COc1ccc(NC(=O)N[C@@H]2CC[C@@H](CCn3cc(-c4ccc(F)cc4)nn3)O[C@@H]2CO)cc1,inactive: 6.03%

row,SMILES,CPE inhibition
1,COc1ccc(C#Cc2ccc3c(c2)O[C@H](CN(C)C(=O)Nc2cccc(OC)c2)[C@H](C)CN([C@@H](C)CO)S3(=O)=O)cc1,inconclusive: 22%
2,O=S(=O)(NCC(c1ccco1)N1CCc2ccccc2C1)c1ccc(F)cc1 (stereo not given),inconclusive: 25.8%
3,COc1ccc(OC)c(S(=O)(=O)N2CCCC(C(=O)NCCc3ccccc3)C2)c1 (stereo not given),inconclusive: 24.5%
4,COc1ccc(C(=O)NOCc2ccccc2)cc1,inconclusive: 29.5%
5,COc1cccc(OC)c1C(=O)Nc1sc2c(c1C(N)=O)CCN(Cc1ccccc1)C2,inconclusive: 50%
6,C=CCOC(=O)C1C(=O)CC(C)(O)C(C(=O)OCC=C)C1c1ccc(N(C)C)cc1 (stereo not given),inactive: -3.04%
7,O=C(Nc1ccc(S(=O)(=O)NC2=NCCCCC2)cc1)c1ccccc1Cl,inactive: 11.6%
8,Oc1c(Br)cc(/C=N/Nc2ccc(Cl)nn2)cc1Br,inconclusive: 36.4%
9,COc1ccccc1N1C(=O)CC(c2ccccc2)CC1=O,inconclusive: 69.5%
10,CCCc1nc(SCC(=O)c2ccc3c(c2)NC(=O)CO3)[nH]c(=O)c1CC,inconclusive: 28.5%
11,COc1cc2c(cc1OC)C(c1cccc(Cl)c1)CC(=O)N2 (stereo not given),inactive: 1.2%
12,CN(C)c1ccc(Nc2ncnc3ccc(Br)cc23)cc1,inactive: -7.7%
13,Cc1ccccc1S(=O)(=O)N1CC[C@H]2[C@@H](CO)N(C)c3ccc(Br)cc3[C@H]21,active: 143%
14,C[C@@H]1CN([C@@H](C)CO)C(=O)CCCn2nncc2CO[C@H]1CN(C)C(=O)Cc1ccccc1,inconclusive: 31%
15,O=C(CC1Oc2ccccc2NC1=O)NCc1ccc(Cl)cc1 (stereo not given),inconclusive: 58.3%
16,Cc1cc(C)nc(N/N=C/c2cc3c(cc2[N+](=O)[O-])OCO3)n1,inconclusive: 25.6%
17,CCCNC(=O)c1cc2c(c(-c3cccc(-c4ccccc4F)c3)n1)[C@@H](CCO)N(C(=O)CC1CC1)C2,inconclusive: 26.5%

# Grouped by structure, those above containing a nitro group on carbon (2)
row,SMILES,CPE inhibition
7,O=C1CC(=Nc2ccc([N+](=O)[O-])cc2)NN1c1c(Cl)cc(Cl)cc1Cl,inactive: -10.9%
16,Cc1cc(C)nc(N/N=C/c2cc3c(cc2[N+](=O)[O-])OCO3)n1,inconclusive: 25.6%
